From patent US6706766
Results are given in words; binding and its absence hold for the method and conditions named. Some results given as binding are weak or reduced against the parent protein; the word gives no strength.

Chains of the proteins cited; added tags and fusions are not shown. Residues count along the entry.
UniProt Q07817, residues 1-209: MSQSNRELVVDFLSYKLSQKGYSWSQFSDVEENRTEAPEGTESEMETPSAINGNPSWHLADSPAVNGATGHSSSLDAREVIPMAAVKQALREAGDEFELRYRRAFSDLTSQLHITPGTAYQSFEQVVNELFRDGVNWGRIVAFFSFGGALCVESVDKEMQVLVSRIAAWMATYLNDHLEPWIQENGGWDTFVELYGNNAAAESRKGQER

Biological target: ^15N-labeled Bcl-xL (UniProt Q07817)
Test: NMR titration, 15N/1H HSQC

Binder: KGGGQVGRQLAIIGDDINR [Bak BH3 peptide (unlabeled)]
- binding: binds
